Laboratory results published in patent US20090162308A1, “USE OF 2,4'-DIMETHYLPROPIOPHENONE AS A FRAGRANCE SUBSTANCE” (SYMRISE GmbH & Co. KG, priority 2007, published 2009).
Where two headings read alike, the source gives them in different places.

Legend:
Odor description = conditions: applicant's own description
[1] = perfume description from literature (S. Arctander, Perfume and Flavor Chemicals); cited from earlier work
[2] = Impact from the fragrance strip (sensory panel); conditions: scale 1-9, 9 best possible evaluation
[3] = Intensity on air (sensory panel); conditions: scale 1-9, 9 best possible evaluation
[4] = Substantivity/retention performance test on hair strands washed with shampoo (panel odor assessment); conditions: panel scale 0-6, 6 best possible evaluation
[5] = Odor threshold value from diethyl phthalate (sensory panel); conditions: scale 1-13, 13 best possible evaluation

In the case of Cc1cccc(C(=O)C(C)C)c1 [2,3′-dimethylpropiophenone (meta), 2,3′-dimethylpropiophenone], the odor (Odor description) is reported as “weaker than para and ortho, rosy, technical-grade”.

For CCc1ccc(C(C)=O)cc1 [p-ethylacetophenone], the odor [1] is given as “sweet, warm, pungent floral odor with a herbal-balsamic undertone”.

For CC(=O)c1ccc(C(C)C)cc1 [p-isopropylacetophenone], the odor [1] is listed as “dry herbaceous and woody odor”.

In the case of Cc1ccc(C(=O)C(C)C)cc1 [2,4′-dimethylpropiophenone], the “Impact (from the fragrance strip)” value [2] is reported as 5, the “Intensity (on air)” value [3] is reported as 6 and the odor (Odor description) is reported as “expressive rose oxide-like and herbal-like odor”. For the same molecule, the “Odor assessment of hair strand after shampoo wash” value (“Odor assessment of hair strand” for short) ([4]; Damp hair) was 2.6, the “Odor assessment of hair strand” value ([4]; Dry hair) was 1.9 and the “Odor threshold value (from diethyl phthalate)” value [5] was 4.

For CC(=O)c1ccc(C)cc1 [p-methylacetophenone], the odor [1] is listed as “floral odor of mimosa, cumarin und bitter almond”.

In the case of Cc1ccccc1C(=O)C(C)C [2,2′-dimethylpropiophenone (ortho), 2,2′-dimethylpropiophenone], the odor (Odor description) is reported as “stronger than meta, rosy, powdery, dusty”.

For CC(C)=CC1CC(C)CCO1 (stereo not drawn) [rose oxide], the odor [1] is listed as “floral-geranium-like, green, hard”.

For CC(=O)c1ccc(CC(C)C)cc1 [p-isobutylacetophenone], the odor [1] is given as “woody-hay-like note and high adherence”.

For C=C(C)[C@H]1CC=C(C)C(=O)C1 [D-carvone, nat., D-carvone], the “Impact (from the fragrance strip)” value [2] was 5, the “Intensity (on air)” value [3] was 6 and the “Odor assessment of hair strand” value ([4]; Damp hair) was 2.3. For the same molecule, the “Odor assessment of hair strand” value ([4]; Dry hair) was 0.9 and the “Odor threshold value (from diethyl phthalate)” value [5] was 4.
